In patent US9457016B2, “Methods for treating polycystic kidney disease” (New York University, priority 2013, dated 2016):
For at least one compound, name, drawing or mass did not settle the structure.

What was measured:
Format in all cases: cell-based, human
ADPKD cells = assay: Seahorse analysis of ATP production and mitochondrial oxygen consumption
Experimental: FIG. 13A-B. Seahorse analysis of ADPKD cells. ADPKD cells that were unstimulated or stimulated with forskolin in the presence or absence of BPTES and mitochondrial oxygen consumption was determined by seahorse analysis. (A) Schematic of the method and analysis. Oligomycin inhibits ATP synthase. FCCP is a mitochondrial uncoupler and leads to maximal OCR and rotenone interferes with electron transport. (B) Inhibition of ATP generation was also found by Seahorse analysis. ADPKD cells were unstimulated in the absence (C) or presence of BAPTES (B) or stimulated with forskolin in the absence (F) or presence of BPTES (FB).
The decreased generation of α-ketoglutarate, which feeds directly into tricarboxylic acid (TCA) would be predicted to lead to decreased TCA intermediates required for mitochondrial respiration and ATP generation. Seahorse analysis (Seahorse Biosciences) was performed on ADPKD cells that were either unstimulated or stimulated with forskolin in the presence or absence of BPTES.

Gls1 [1] = assay: Gls1 protein expression after forskolin, immunoblot, ADPKD cells; settings: forskolin 24 hours
Gls1 [2] = assay: Gls1 protein expression after forskolin, immunoblot, NHK cells; settings: forskolin 24 hours

C=C[C@@]1(C)CC(=O)[C@]2(O)[C@@]3(C)[C@@H](O)CCC(C)(C)[C@@H]3[C@H](O)[C@H](OC(C)=O)[C@@]2(C)O1 [forskolin]
maximal O2 consumption (ADPKD cells): statistically significant increase | gls1 protein expression (both isoforms) (Gls1 [1]): markedly up-regulated | gls1 protein expression (both isoforms) (Gls1 [2]): up-regulated
